Patent US20140038203A1, “METHODS FOR DETECTING OR PREDICTING KIDNEY DISEASE” (MUSC FOUNDATION FOR RESEARCH DEVELOPMENT, priority 2012, published 2014)

B1: Apolipoprotein A-IV: urinary protein, Uniprot P06727 (protein, UniProt P06727 21-396, looked up)
Apolipoprotein A-IV: EVSADQVATVMWDYFSQLSNNAKEAVEHLQKSELTQQLNALFQDKLGEVNTYAGDLQKKLVPFATELHERLAKDSEKLKEEIGKELEELRARLLPHANEVSQKIGDNLRELQQRLEPYADQLRTQVSTQAEQLRRQLTPYAQRMERVLRENADSLQASLRPHADELKAKIDQNVEELKGRLTPYADEFKVKIDQTVEELRRSLAPYAQDTQEKLNHQLEGLTFQMKKNAEELKARISASAEELRQRLAPLAEDVRGNLRGNTEGLQKSLAELGGHLDQQVEEFRRRVEPYGENFNKALVQQMEQLRQKLGPHAGDVEGHLSFLEKDLRDKVNSFFSTFKEKESQDKTLSLPELEQQQEQQQEQQQEQVQMLAPLES
B2: Fatty acid-binding protein, adipocyte: urinary protein, Uniprot P15090 (protein, UniProt P15090 2-132, looked up)
Fatty acid-binding protein, …: CDAFVGTWKLVSSENFDDYMKEVGVGFATRKVAGMAKPNMIISVNGDVITIKSESTFKNTEISFILGQEFDEVTADDRKVKSTITLDGGVLVHVQKWDGKSTTIKRKREDDKLVVECVMKGVTSTRVYERA
B3: Zinc-alpha-2-glycoprotein: urinary protein, Uniprot P25311 (protein, UniProt P25311 21-298, looked up)
Zinc-alpha-2-glycoprotein: QENQDGRYSLTYIYTGLSKHVEDVPAFQALGSLNDLQFFRYNSKDRKSQPMGLWRQVEGMEDWKQDSQLQKAREDIFMETLKDIVEYYNDSNGSHVLQGRFGCEIENNRSSGAFWKYYYDGKDYIEFNKEIPAWVPFDPAAQITKQKWEAEPVYVQRAKAYLEEECPATLRKYLKYSKNILDRQDPPSVVVTSHQAPGEKKKLKCLAYDFYPGKIDVHWTRAGEVQEPELRGDVLHNGNGTYQSWVVVAVPPQDTAPYSCHVQHSSLAQPLVVPWEAS
B4: Keratin, type II cytoskeletal 5: urinary protein, Uniprot P13647 (protein, UniProt P13647 1-590, looked up)
Keratin, type II cytoskeletal …: MSRQSSVSFRSGGSRSFSTASAITPSVSRTSFTSVSRSGGGGGGGFGRVSLAGACGVGGYGSRSLYNLGGSKRISISTSGGSFRNRFGAGAGGGYGFGGGAGSGFGFGGGAGGGFGLGGGAGFGGGFGGPGFPVCPPGGIQEVTVNQSLLTPLNLQIDPSIQRVRTEEREQIKTLNNKFASFIDKVRFLEQQNKVLDTKWTLLQEQGTKTVRQNLEPLFEQYINNLRRQLDSIVGERGRLDSELRNMQDLVEDFKNKYEDEINKRTTAENEFVMLKKDVDAAYMNKVELEAKVDALMDEINFMKMFFDAELSQMQTHVSDTSVVLSMDNNRNLDLDSIIAEVKAQYEEIANRSRTEAESWYQTKYEELQQTAGRHGDDLRNTKHEISEMNRMIQRLRAEIDNVKKQCANLQNAIADAEQRGELALKDARNKLAELEEALQKAKQDMARLLREYQELMNTKLALDVEIATYRKLLEGEECRLSGEGVGPVNISVVTSSVSSGYGSGSGYGGGLGGGLGGGLGGGLAGGSSGSYYSSSSGGVGLGGGLSVGGSGFSASSGRGLGVGFGSGGGSSSSVKFVSTTSSSRKSFKS
B5: Alpha-1-acid glycoprotein 2: urinary protein, Uniprot P19652 (protein, UniProt P19652 19-201, looked up)
Alpha-1-acid glycoprotein 2: QIPLCANLVPVPITNATLDRITGKWFYIASAFRNEEYNKSVQEIQATFFYFTPNKTEDTIFLREYQTRQNQCFYNSSYLNVQRENGTVSRYEGGREHVAHLLFLRDTKTLMFGSYLDDEKNWGLSFYADKPETTKEQLGEFYEALDCLCIPRSDVMYTDWKKDKCEPLEKQHEKERKQEEGES
B6: Pigment epithelium-derived factor: urinary protein, Uniprot P36955 (protein, UniProt P36955 20-418, looked up)
Pigment epithelium-derived …: QNPASPPEEGSPDPDSTGALVEEEDPFFKVPVNKLAAAVSNFGYDLYRVRSSTSPTTNVLLSPLSVATALSALSLGAEQRTESIIHRALYYDLISSPDIHGTYKELLDTVTAPQKNLKSASRIVFEKKLRIKSSFVAPLEKSYGTRPRVLTGNPRLDLQEINNWVQAQMKGKLARSTKEIPDEISILLLGVAHFKGQWVTKFDSRKTSLEDFYLDEERTVRVPMMSDPKAVLRYGLDSDLSCKIAQLPLTGSMSIIFFLPLKVTQNLTLIEESLTSEFIHDIDRELKTVQAVLTVPKLKLSYEGEVTKSLQEMKLQSLFDSPDFSKITGKPIKLTQVEHRAGFEWNEDGAGTTPSPGLQPAHLTFPLDYHLNQPFIFVLRDTDTGALLFIGKILDPRGP
B7: Keratin, type II cytoskeletal 1: urinary protein, Uniprot P04264 (protein, UniProt P04264 2-644, looked up)
Keratin, type II cytoskeletal …: SRQFSSRSGYRSGGGFSSGSAGIINYQRRTTSSSTRRSGGGGGRFSSCGGGGGSFGAGGGFGSRSLVNLGGSKSISISVARGGGRGSGFGGGYGGGGFGGGGFGGGGFGGGGIGGGGFGGFGSGGGGFGGGGFGGGGYGGGYGPVCPPGGIQEVTINQSLLQPLNVEIDPEIQKVKSREREQIKSLNNQFASFIDKVRFLEQQNQVLQTKWELLQQVDTSTRTHNLEPYFESFINNLRRRVDQLKSDQSRLDSELKNMQDMVEDYRNKYEDEINKRTNAENEFVTIKKDVDGAYMTKVDLQAKLDNLQQEIDFLTALYQAELSQMQTQISETNVILSMDNNRSLDLDSIIAEVKAQYEDIAQKSKAEAESLYQSKYEELQITAGRHGDSVRNSKIEISELNRVIQRLRSEIDNVKKQISNLQQSISDAEQRGENALKDAKNKLNDLEDALQQAKEDLARLLRDYQELMNTKLALDLEIATYRTLLEGEESRMSGECAPNVSVSVSTSHTTISGGGSRGGGGGGYGSGGSSYGSGGGSYGSGGGGGGGRGSYGSGGSSYGSGGGSYGSGGGGGGHGSYGSGSSSGGYRGGSGGGGGGSSGGRGSGGGSSGGSIGGRGSSSGGVKSSGGSSSVKFVSTTYSGVTR
B8: Poliovirus receptor-related protein 2 (protein, UniProt Q92692 32-538, looked up)
Nectin-2: QDVRVQVLPEVRGQLGGTVELPCHLLPPVPGLYISLVTWQRPDAPANHQNVAAFHPKMGPSFPSPKPGSERLSFVSAKQSTGQDTEAELQDATLALHGLTVEDEGNYTCEFATFPKGSVRGMTWLRVIAKPKNQAEAQKVTFSQDPTTVALCISKEGRPPARISWLSSLDWEAKETQVSGTLAGTVTVTSRFTLVPSGRADGVTVTCKVEHESFEEPALIPVTLSVRYPPEVSISGYDDNWYLGRTDATLSCDVRSNPEPTGYDWSTTSGTFPTSAVAQGSQLVIHAVDSLFNTTFVCTVTNAVGMGRAEQVIFVRETPNTAGAGATGGIIGGIIAAIIATAVAATGILICRQQRKEQTLQGAEEDEDLEGPPSYKPPTPKAKLEAQEMPSQLFTLGASEHSPLKTPYFDAGASCTEQEMPRYHELPTLEERSGPLHPGATSLGSPIPVPPGPPAVEDVSLDLEDEEGEEEEEYLDKINPIYDALSYSSPSDSYQGKGFVMSRAMYV
B9: Prostaglandin-H2 D-isomerase (protein, UniProt P41222 23-190, looked up)
Prostaglandin-H2 D-isomerase: APEAQVSVQPNFQQDKFLGRWFSAGLASNSSWLREKKAALSMCKSVVAPATDGGLNLTSTFLRKNQCETRTMLLQPAGSLGSYSYRSPHWGSTYSVSVVETDYDQYALLYSQGSKGPGEDFRMATLYSRTQTPRAELKEKFTAFCKAQGFTEDTIVFLPQTDKCMTEQ
B10: Cystatin-M (protein, UniProt Q15828 29-149, looked up)
Cystatin-M: RPQERMVGELRDLSPDDPQVQKAAQAAVASYNMGSNSIYYFRDTHIIKAQSQLVAGIKYFLTMEMGSTDCRKTRVTGDHVDLTTCPLAAGAQQEKLRCDFEVLVVPWQNSSQLLKHNCVQM
B11: Insulin-like growth factor-binding protein 1 (protein, UniProt P08833 26-259, looked up)
Insulin-like growth …: APWQCAPCSAEKLALCPPVSASCSEVTRSAGCGCCPMCALPLGAACGVATARCARGLSCRALPGEQQPLHALTRGQGACVQESDASAPHAAEAGSPESPESTEITEEELLDNFHLMAPSEEDHSILWDAISTYDGSKALHVTNIKKWKEPCRIELYRVVESLAKAQETSGEEISKFYLPNCNKNGFYHSRQCETSMDGEAGLCWCVYPWNGKRIPGSPEIRGDPNCQIYFNVQN
B12: Carbonic anhydrase 3 (protein, UniProt P07451 2-260, looked up)
Carbonic anhydrase 3: AKEWGYASHNGPDHWHELFPNAKGENQSPVELHTKDIRHDPSLQPWSVSYDGGSAKTILNNGKTCRVVFDDTYDRSMLRGGPLPGPYRLRQFHLHWGSSDDHGSEHTVDGVKYAAELHLVHWNPKYNTFKEALKQRDGIAVIGIFLKIGHENGEFQIFLDALDKIKTKGKEAPFTKFDPSCLFPACRDYWTYQGSFTTPPCEECIVWLLLKEPMTVSSDQMAKLRSLLSSAENEPPVPLVSNWRPPQPINNRVVRASFK

Assay: RRT study: LC-MS/MS urinary proteomics, AKI after cardiac surgery, RRT vs No RRT
Set-up: species or system human
Conditions: RRT vs No RRT; positive = elevated in RRT group

Row | Molecule | Mean Fold Change
1 | B1 | 9.086
2 | B2 | 1.598
3 | B3 | 2.041
4 | B4 | −1.736
5 | B5 | 2.62
6 | B6 | 9.084
7 | B7 | −1.902

Same assay, conditions: direction of differential abundance, patients who did vs did not require RRT/dialysis

Row | Molecule | Up or Down
8 | B8 | Down
9 | B9 | Down
10 | B10 | Down

Same assay, conditions: direction of urinary abundance, patients who did vs did not require RRT/dialysis

Row | Molecule | Up or Down
11 | B1 | Up
12 | B2 | Up
13 | B3 | Up
14 | B4 | Down
15 | B5 | Up
16 | B6 | Up
17 | B11 | Up
18 | B7 | Down
19 | B12 | Up

Same assay, conditions: patients who did vs did not require RRT/dialysis

Row | Molecule | Mean Fold Change
20 | B8 | 1.234
21 | B9 | 1.185
22 | B10 | 1.159

Same assay, conditions: patients who did vs did not require RRT/dialysis; read with the Up or Down column

Row | Molecule | Mean Fold Change
23 | B1 | 54.52
24 | B2 | 7.99
25 | B3 | 2.449
26 | B4 | 3.473
27 | B5 | 2.62
28 | B6 | 45.42
29 | B7 | 1.902

Same assay, conditions: urine; AKI patients who did not require RRT (n=6)

Row | Molecule | Mean No RRT
30 | B1 | 2.36 normalized spectral counts
31 | B2 | 6.25 normalized spectral counts
32 | B3 | 112.02 normalized spectral counts
33 | B4 | 5.74 normalized spectral counts
34 | B5 | 18.15 normalized spectral counts
35 | B6 | 2.50 normalized spectral counts
36 | B7 | 35.85 normalized spectral counts

Same assay, conditions: urine; AKI patients who required RRT (n=6)

Row | Molecule | Mean RRT
37 | B1 | 21.45 normalized spectral counts
38 | B2 | 9.99 normalized spectral counts
39 | B3 | 228.64 normalized spectral counts
40 | B4 | 2.16 normalized spectral counts
41 | B5 | 47.56 normalized spectral counts
42 | B6 | 22.71 normalized spectral counts
43 | B7 | 18.85 normalized spectral counts
